# About 35 (0.06%) of roughly 59,000 compounds were called active. The shares of active, inactive and inconclusive entries below differ from those in the screen. Cut-off read from the data, not from the text of the source: active = max dye-equivalent concentration above about 10 nM; inconclusive = between about 1.1 nM and that limit; inactive = weaker than that.
# Experiment: qHTS Assay for Spectroscopic Profiling in Texas Red Spectral Region
# Conditions: Compound fluorescence, Texas Red channel, 547/618 nm; hits give high values
# Summary of the method: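 Pin-transferred compounds and Texas Red standards go into 100 mM Tris buffer, pH 8.0. After 15 min at room temperature, plates are imaged with 547/618 nm filters. Each value is a dye-equivalent concentration derived from the per-plate dye curve.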
row,Compound,max dye-equivalent concentration
1,CCOC(=O)C1CCN(S(=O)(=O)c2cccc(-c3cn4cccnc4n3)c2)CC1,inconclusive: 1.1 nM
2,CC1CCCCN1S(=O)(=O)c1ccc(S(=O)(=O)N2CCN(c3ccc(F)cc3)CC2)cc1 (stereo not given),inconclusive: 1.4 nM
3,C#C[C@]1(O)CC[C@@H]2[C@H]3CCC4=Cc5oncc5C[C@]4(C)[C@@H]3CC[C@@]21C,inconclusive: 1.2 nM
4,Cc1cc(C)c2nc(SCC#N)cc(C)c2c1,inconclusive: 1.3 nM
5,C[C@@]12CC[C@@H]3[C@H](CCC4=CC(=O)CC[C@]43C)[C@@H]1CC[C@@H]2C(=O)Cn1cnc2c(=S)nc[nH]c21,inactive
6,CC(C)C[C@@H](N)C(=O)Nc1ccc2ccccc2c1,inactive
7,CCCN(CCC)c1nc(C)cc(C(C#N)c2nc3ccccc3o2)n1 (stereo not given),inconclusive: 1.4 nM
8,CN(C)CCCOC(=O)Cc1ccc(Cl)cc1,inconclusive: 1.5 nM
9,Cc1ccc(C(=O)C2CCN(CC(=O)Nc3ccc4c(c3)OCCO4)CC2)cc1,inconclusive: 1.1 nM
10,O=C(NO)C1CC2C=CC1C2 (stereo not given),inconclusive: 1.1 nM
11,Cc1ncoc1C(=O)Nc1ccccc1-c1ccccc1,inconclusive: 1.4 nM
12,COCCNc1ncnc2ccc(-c3ccoc3)cc12,inactive
13,COc1cccc(-n2nnc3c(=O)n(Cc4ccc(Cl)cc4)cnc32)c1,inconclusive: 1.8 nM
14,COc1cc(-c2nnc3sc(Cc4ccc(Cl)cc4)nn23)cc(OC)c1OC,inconclusive: 1.7 nM
15,COc1ccc(OC)c(C2SCCN2S(=O)(=O)c2cccc(C(F)(F)F)c2)c1 (stereo not given),inconclusive: 3.5 nM
16,COc1ccccc1C1C2=C(N=C3SCC(=O)N31)c1ccccc1CC2 (stereo not given),inconclusive: 1.7 nM
17,CC(O)CNc1nc2c(c(=O)n(C)c(=O)n2C)n1C/C=C/c1ccccc1 (stereo not given),inconclusive: 1.2 nM
18,N#CC1=C(N)C(C#N)(C#N)C(c2cccnc2)C2CCCC=C12 (stereo not given),inactive
19,O=C(CN1CCOCC1)NCc1ccccc1,inconclusive: 4.3 nM
20,Cc1ccc2cc(C)c(N3CCN(c4ccccn4)CC3)nc2c1,inconclusive: 1.3 nM
21,COc1ccccc1-c1cc(C(=O)NCCCn2ccnc2)no1,inconclusive: 1.7 nM
22,COc1ccc(-n2c(N)c(C(=O)NCc3ccco3)c3nc4ccccc4nc32)c(OC)c1,inconclusive: 2.1 nM
23,CC(C)c1ccccc1NC(=O)c1cnccn1,inconclusive: 1.1 nM

# Arranged by length of the SMILES (smallest number first): four of the compounds above.
row,Compound,max dye-equivalent concentration
7,CCCN(CCC)c1nc(C)cc(C(C#N)c2nc3ccccc3o2)n1 (stereo not given),inconclusive: 1.4 nM
17,CC(O)CNc1nc2c(c(=O)n(C)c(=O)n2C)n1C/C=C/c1ccccc1 (stereo not given),inconclusive: 1.2 nM
9,Cc1ccc(C(=O)C2CCN(CC(=O)Nc3ccc4c(c3)OCCO4)CC2)cc1,inconclusive: 1.1 nM
15,COc1ccc(OC)c(C2SCCN2S(=O)(=O)c2cccc(C(F)(F)F)c2)c1 (stereo not given),inconclusive: 3.5 nM

# (next part)

row,Compound,max dye-equivalent concentration
1,COC(=O)C1=C2SC(C)C(=O)N2C(N)=C(C#N)C1c1cc(OC)c(OC)c(OC)c1 (stereo not given),inconclusive: 1.1 nM
2,OC1(c2ccc(Cl)cc2)CCN(Cc2c[nH]c3ccccc23)CC1,inconclusive: 1.6 nM
3,CCOC(=O)C1C(=O)NC(N2CCN(CC)CC2)=NC1c1ccccc1 (stereo not given),inconclusive: 1.4 nM
4,COCC(=O)N1CCC(n2nnc3cc(F)ccc32)CC1,inconclusive: 1.5 nM
5,CC(=O)N1CCN(c2ccc(Oc3nnnn3-c3ccccc3)cc2)CC1,inconclusive: 1.1 nM
6,O=C(O)c1ccccc1OP(=O)(O)O,inconclusive: 1.1 nM
7,COc1ccccc1-n1c(=S)sc2c(=O)n(Cc3ccco3)c(SC)nc21,inconclusive: 1.8 nM
8,COc1ccccc1C1C=C(c2ccc(Cl)cc2)Nc2nc(N3C(=O)CCC3=O)nn21 (stereo not given),inactive
9,CCOC(=O)c1cc2sc(C)cc2n1CC(=O)NCc1ccc(F)cc1,inconclusive: 1.1 nM
10,CC(=O)NCCSCCNC(C)=O,inactive
11,CC(C)=CCSc1nnc([C@@H](NC(=O)OC(C)(C)C)C(C)C)o1,inconclusive: 1.1 nM
12,CCn1c(C)csc1=NC(=O)c1ccccc1O,inconclusive: 1.1 nM
13,N#CCSc1ncnc2sc3c(c12)CCC3,inconclusive: 2.8 nM
14,COc1ccc(-c2ccc(NCCC3=CCCCC3)nn2)cc1OC,inactive
15,CCn1c(NC(=O)c2cccs2)nc2ccccc21,inconclusive: 1.5 nM
16,CCN(CC)c1ccc(-c2nc3cnccc3n2C)cc1,inconclusive: 1.3 nM
17,CN1CCN(CCC=C2c3ccccc3Sc3ccc(S(=O)(=O)N(C)C)cc32)CC1,inconclusive: 1.1 nM
18,CC1(C)Cc2nc(N3CCOCC3)c(C#N)cc2CO1,inconclusive: 1.2 nM
19,CCOc1ccc(NC(=O)c2ccco2)cc1,inconclusive: 1.1 nM
20,COc1ccc(C)cc1C(=O)CCC(=O)Nc1ccccc1N1CCOCC1,inconclusive: 1.3 nM
21,COCCN(CCOC)c1cc(C)c(C#N)c2nc3ccccc3n12,inconclusive: 1.1 nM
22,CCc1nnc(NC(=O)C2CCN(c3nc(C)cc(C)n3)CC2)s1,inconclusive: 1.5 nM

# — PubChem BioAssay AID587 (National Center for Advancing Translational Sciences (NCATS), 2007)
